Test results taken from patent publication US20240082118A1, “TOPICAL COMPOSITIONS AND METHODS OF PREPARING THE SAME” (LANDA LABS (2012) LTD., priority 2021, published 2024).
Some entries share one result that the patent states for a list of compounds.

Experiment: Viscosity by thermo-rheometer, 20-80° C., shear rate 10 sec^−1
Format: physicochemical
Details: 1:1 weight ratio with PCL-14, measured at 50° C.

SMILES: CC(=O)OC(C)(C)C [tert-butyl acetate]
- second viscosity of PCL-14 plasticized with the non-volatile liquid: less than 10^4 mPa·s
